Taken from: PubChem BioAssay AID1224829 (NIAID, 2016)
Here is one part, drawn at random, of about 3,800 reagents. 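Calls cover raised and lowered translocation; gene median uses one vendor's three siRNAs; qiagen siRNAs acted more weakly than ambion siRNAs.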 The numbers tell different reagents against one gene apart. Further read-outs or replicates are left out here.

Purpose: 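Follow-up of TLR4-NF-kappaB regulators using six separate siRNAs for each gene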 (follow-up of hits)
System: mouse RAW264.7 G9 macrophage reporter cells
Reagent: single siRNA against mouse genes, 100 nM
Time to read-out: 2 days of siRNA knock-down, then 40 min of LPS before fixing
Treatment: LPS (Salmonella minnesota R595) at 10 ng/ml
Measured: 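High-content images after 40 min LPS exposure; GFP-p65 nucleus to surrounding ring signal ratio, normalised to plate median and non-targeting control wells, expressed as z-score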
Scale: p65 translocation z-score: higher = more nuclear NF-kappaB p65 after LPS
Hit rule: 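An siRNA is called active when the mean z-score of its two replicates is above 2 or below -2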
Calls: active = changed p65 translocation (either direction); inactive = no clear change

no.	gene knocked down	reagent	siRNA vendor or control pool	p65 translocation z-score, replicate mean	p65 translocation z-score, replicate 1	p65 translocation z-score, replicate 2	activity call
1	Exosc1	1	ambion single siRNA	-0.855	-1.82	0.112	inactive
2	Exosc1	2	ambion single siRNA	-2.66	-3.47	-1.85	active
3	Exosc1	3	ambion single siRNA	-3.52	-3.52		active
4	Exosc1	4	qiagen single siRNA	-0.943	-1.87	-0.0144	inactive
5	Exosc1	5	qiagen single siRNA	-1.53	-1.43	-1.63	inactive
6	Exosc1	6	qiagen single siRNA	-1.73	-1.73		inactive
7	Cdh1	1	ambion single siRNA	-1.91	-1.91		inactive
8	Cdh1	2	ambion single siRNA	-2.63	-2.02	-3.24	active
9	Cdh1	3	ambion single siRNA	-2.78	-3.48	-2.09	active
10	Cdh1	4	qiagen single siRNA	-3.89	-2.31	-5.47	active
11	Cdh1	5	qiagen single siRNA	0.743	0.467	1.02	inactive
12	Cdh1	6	qiagen single siRNA	-2.76	-1.8	-3.71	active
13	Eif1	1	ambion single siRNA	1.61	1.61		inactive
14	Eif1	2	ambion single siRNA	-2.4	-2.73	-2.06	active
15	Eif1	3	ambion single siRNA	-4.79	-4.04	-5.55	active
16	Eif1	4	qiagen single siRNA	0.547	1.84	-0.748	inactive
17	Eif1	5	qiagen single siRNA	-1.29	-0.459	-2.12	inactive
18	Eif1	6	qiagen single siRNA	0.612	-0.251	1.48	inactive
19	Casp4	1	ambion single siRNA	-2.48	-1.5	-3.45	active
20	Casp4	2	ambion single siRNA	-2.32	-2.4	-2.23	active
21	Casp4	3	ambion single siRNA	-5.31	-4.65	-5.97	active
22	Casp4	4	qiagen single siRNA	1.33	0.47	2.18	inactive
23	Casp4	5	qiagen single siRNA	1.21	0.793	1.63	inactive
24	Casp4	6	qiagen single siRNA	0.519	0.792	0.246	inactive
25	Dixdc1	1	ambion single siRNA	-4.73	-4.98	-4.49	active
26	Dixdc1	2	ambion single siRNA	-1.8	-0.7	-2.9	inactive
27	Dixdc1	3	ambion single siRNA	-2.26	-0.93	-3.58	active
28	Dixdc1	4	qiagen single siRNA	1.42	1.55	1.29	inactive
29	Dixdc1	5	qiagen single siRNA	1.75	1.61	1.9	inactive
30	Dixdc1	6	qiagen single siRNA	2.19	2.51	1.87	active

Taken from above:
Casp4 #2, siRNA vendor or control pool ambion single siRNA, p65 translocation z-score, replicate 2 → -2.23
Result of Cdh1 #6, siRNA vendor or control pool qiagen single siRNA in “p65 translocation z-score, replicate 2”: -3.71
Under “p65 translocation z-score, replicate 2”, Dixdc1 #3, siRNA vendor or control pool ambion single siRNA is entered as -3.58
For “p65 translocation z-score, replicate mean”, Eif1 #6, siRNA vendor or control pool qiagen single siRNA reads 0.612
Entry of Exosc1 #4, siRNA vendor or control pool qiagen single siRNA under “activity call”: inactive
For “activity call”, Exosc1 #2, siRNA vendor or control pool ambion single siRNA reads active

Continued.
no.	gene knocked down	reagent	siRNA vendor or control pool	p65 translocation z-score, replicate mean	p65 translocation z-score, replicate 1	p65 translocation z-score, replicate 2	activity call
31	Synj2bp	1	ambion single siRNA	-3.29	-2.81	-3.77	active
32	Synj2bp	2	ambion single siRNA	-2.69	-2.86	-2.51	active
33	Synj2bp	3	ambion single siRNA	-5.27	-4.62	-5.92	active
34	Hus1	1	ambion single siRNA	0.344	-0.508	1.2	inactive
35	Hus1	2	ambion single siRNA	0.35	0.518	0.183	inactive
36	Hus1	3	ambion single siRNA	1.38	1.38		inactive
37	Hus1	4	qiagen single siRNA	3.13	2.64	3.61	active
38	Hus1	5	qiagen single siRNA	-0.0732	0.878	-1.02	inactive
39	Hus1	6	qiagen single siRNA	0.554	1.02	0.087	inactive
40	BC051665	1	ambion single siRNA	1.35	0.98	1.72	inactive
41	BC051665	2	ambion single siRNA	0.385	-0.127	0.897	inactive
42	BC051665	3	ambion single siRNA	-4.69	-5.28	-4.09	active
43	BC051665	4	qiagen single siRNA	0.0135	0.255	-0.228	inactive
44	BC051665	5	qiagen single siRNA	1.66	0.727	2.59	inactive
45	BC051665	6	qiagen single siRNA	-1.21	-0.966	-1.46	inactive
46	Hoxc8	1	ambion single siRNA	-6.22	-7.47	-4.97	active
47	Hoxc8	2	ambion single siRNA	-2.03	-1.46	-2.6	active
48	Hoxc8	3	ambion single siRNA	-0.822	2.14	-3.78	inactive
49	Hoxc8	4	qiagen single siRNA	1.21	0.851	1.58	inactive
50	Hoxc8	5	qiagen single siRNA	1.72	1.37	2.08	inactive
51	Hoxc8	6	qiagen single siRNA	1.41	2.22	0.599	inactive
